Measured data: PubChem BioAssay AID1159584 (Peter MacCallum Cancer Centre, 2016)
Test: 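Knock-downs that harm CDH1-null cells more than parental MCF10A cells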 (primary screen). System: human MCF10A breast epithelial cells, parental and CDH1-null. Reagents: siRNA against human genes. Read-out: 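Cell viability by CellTiter-Glo ATP luminescence, each line scaled to the mean of mock wells across plates, then CDH1-null over parental ratio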. Reading the numbers: CDH1-null / parental viability ratio: higher = CDH1-null cells survive relatively better than parental; CDH1-null viability vs mock: higher = more viable CDH1-null cells. Units: CDH1-null viability vs mock in fraction of mock.
The whole screen tested about 18,000 reagents; shown is an unselected part. Not all columns of the deposit are shown. Not given: the amount of reagent, the time to read-out.

ESM1 (endothelial cell specific molecule 1): CDH1-null / parental viability ratio = 0.9; CDH1-null viability vs mock = 0.7
GPR180 (G protein-coupled receptor 180): CDH1-null / parental viability ratio = 1.11; CDH1-null viability vs mock = 0.98
OR2W1 (olfactory receptor family 2 subfamily W member 1): CDH1-null / parental viability ratio = 0.88; CDH1-null viability vs mock = 0.38
C3AR1 (complement C3a receptor 1): CDH1-null / parental viability ratio = 1.3; CDH1-null viability vs mock = 0.9
MARS1 (methionyl-tRNA synthetase 1): CDH1-null / parental viability ratio = 0.93; CDH1-null viability vs mock = 0.8
CBLN4 (cerebellin 4 precursor): CDH1-null / parental viability ratio = 1.07; CDH1-null viability vs mock = 0.64
GRID1 (glutamate ionotropic receptor delta type subunit 1): CDH1-null / parental viability ratio = 1.18; CDH1-null viability vs mock = 0.84
CXCL2 (C-X-C motif chemokine ligand 2): CDH1-null / parental viability ratio = 0.81; CDH1-null viability vs mock = 0.5
CKAP5 (cytoskeleton associated protein 5): CDH1-null / parental viability ratio = 1.55; CDH1-null viability vs mock = 0.34
ZDHHC23 (zDHHC palmitoyltransferase 23): CDH1-null / parental viability ratio = 0.84; CDH1-null viability vs mock = 0.66

2 of these entries in another layout:
| gene | CDH1-null / parental viability ratio | CDH1-null viability vs mock |
| --- | --- | --- |
| GRID1 (glutamate ionotropic receptor delta type subunit 1) | 1.18 | 0.84 |
| CXCL2 (C-X-C motif chemokine ligand 2) | 0.81 | 0.5 |

The listing continues:
AHCYL2 (adenosylhomocysteinase like 2): CDH1-null / parental viability ratio = 1.21; CDH1-null viability vs mock = 0.88
PCDHA6 (protocadherin alpha 6): CDH1-null / parental viability ratio = 1.13; CDH1-null viability vs mock = 1.04
ABCA1 (ATP binding cassette subfamily A member 1): CDH1-null / parental viability ratio = 1.16; CDH1-null viability vs mock = 0.89
RLIM (ring finger protein, LIM domain interacting): CDH1-null / parental viability ratio = 1; CDH1-null viability vs mock = 0.98
CA3 (carbonic anhydrase 3): CDH1-null / parental viability ratio = 1.16; CDH1-null viability vs mock = 0.81
RMDN3 (regulator of microtubule dynamics 3): CDH1-null / parental viability ratio = 0.86; CDH1-null viability vs mock = 0.54
CNST (consortin, connexin sorting protein): CDH1-null / parental viability ratio = 0.96; CDH1-null viability vs mock = 0.73
SDC2 (syndecan 2): CDH1-null / parental viability ratio = 1.25; CDH1-null viability vs mock = 0.75
CD109 (CD109 molecule): CDH1-null / parental viability ratio = 1.07; CDH1-null viability vs mock = 1.04
DGCR8 (DGCR8 microprocessor complex subunit): CDH1-null / parental viability ratio = 0.61; CDH1-null viability vs mock = 0.44
MAPDA (N6-Methyl-AMP deaminase): CDH1-null / parental viability ratio = 0.9; CDH1-null viability vs mock = 1.04
OR8U8 (olfactory receptor family 8 subfamily U member 8): CDH1-null / parental viability ratio = 1.07; CDH1-null viability vs mock = 0.86
TMED9 (transmembrane p24 trafficking protein 9): CDH1-null / parental viability ratio = 1.15; CDH1-null viability vs mock = 1.1
DEFB134 (defensin beta 134): CDH1-null / parental viability ratio = 0.96; CDH1-null viability vs mock = 0.94
